PubChem BioAssay AID602203 – INSERM | 2012

Aim: 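Confirming genes that raise or lower cisplatin-induced death in A549 cells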 (follow-up of hits)
Cell system: human A549 lung cancer cells
Reagents: siRNA pair against human genes
Challenge: cisplatin at a dose killing half of control-siRNA cells, given 48 h after transfection
Measurement: 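Cisplatin at a dose killing 50% of control cells, 48 h post-transfection; each siRNA +1 protective, -1 sensitizing, 0 if toxic (LDH) or antiproliferative (WST-1); per-gene sum and mean death change versus control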
Reading the numbers: summed siRNA score for cisplatin death: higher = more siRNAs reduced cisplatin-induced cell death; change in cisplatin death versus control: higher = fewer cells died than in control
Rule for the call: In these data the active calls have summed siRNA score for cisplatin death at about -3 or lower, or at about 3 or higher
Here is one part, drawn at random, of 999 reagents tested. In the full data, 85 (8.5%) are marked active. 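Unclear how single-siRNA scores of -1, 0 or +1 give the printed -4 to 4 range; calls lie near -3 or 3 and beyond.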 The record does not give: the amount of reagent, the time to read-out, the dose of the treatment.

summed siRNA score for cisplatin death	change in cisplatin death versus control (percentage points)	Outcome	target gene
0		inactive	CSAG1 (chondrosarcoma associated gene 1)
1		inactive	LOC442386
-4	-9	active	CLIC1 (CLIC family member 1)
0		inactive	FOXD4 (forkhead box D4)
-1		inactive	ZFP37 (ZFP37 zinc finger protein)
1		inactive	LGI3 (leucine rich repeat LGI family member 3)
1		inactive	DCLK2 (doublecortin like kinase 2)
-1		inactive	PNLIPRP1 (pancreatic lipase related protein 1)
0		inactive	MMP2 (matrix metallopeptidase 2)
-1		inactive	PDK4 (pyruvate dehydrogenase kinase 4)
2		inactive	LOC387742
1		inactive	THYN1 (thymocyte nuclear protein 1)
1		inactive	RAB21 (RAB21, member RAS oncogene family)
2		inactive	ZFP36L1 (ZFP36 like 1 zinc finger CCCH-type)
-1		inactive	NRBP1 (nuclear receptor binding protein 1)
-1		inactive	CD2AP (CD2 associated protein)
-1		inactive	UBR1 (ubiquitin protein ligase E3 component n-recognin 1)
-2		inactive	ASRGL1 (asparaginase and isoaspartyl peptidase 1)
0		inactive	OR1S1 (olfactory receptor family 1 subfamily S member 1)
-1		inactive	TMEM132B (transmembrane protein 132B)
0		inactive	MBD1 (methyl-CpG binding domain protein 1)
-1		inactive	NDUFA8 (NADH:ubiquinone oxidoreductase subunit A8)
-1		inactive	PHPT1 (phosphohistidine phosphatase 1)
0		inactive	CENATAC (centrosomal AT-AC splicing factor)
-1		inactive	COCH (cochlin)
2		inactive	MCRIP1 (MAPK regulated corepressor interacting protein 1)
-1		inactive	CD38 (CD38 molecule)
-3	-12.6	active	BTNL2 (butyrophilin like 2)
0		inactive	NUP153 (nucleoporin 153)
0		inactive	LOC441646
-2		inactive	EPN2 (epsin 2)
-1		inactive	NUP35 (nucleoporin 35)
-2		inactive	PKN2 (protein kinase N2)
0		inactive	PPIAP58 (peptidylprolyl isomerase A pseudogene 58)
1		inactive	LOC440967
0		inactive	COX6B1 (cytochrome c oxidase subunit 6B1)
1		inactive	GTF2I (general transcription factor IIi)
1		inactive	IGIP (IgA inducing protein)
-1		inactive	CYC1 (cytochrome c1)
2		inactive	PSG7 (pregnancy specific beta-1-glycoprotein 7)
0		inactive	MTAP (methylthioadenosine phosphorylase)
1		inactive	MYL2 (myosin light chain 2)
1		inactive	LOC344328
-1		inactive	KTN1 (kinectin 1)
0		inactive	LRP6 (LDL receptor related protein 6)
0		inactive	DNM1P41 (dynamin 1 pseudogene 41)
0		inactive	FLJ34433
0		inactive	EPM2A (EPM2A glucan phosphatase, laforin)
-1		inactive	SERPINA10 (serpin family A member 10)
3	8.57	active	LOC442126
1		inactive	KIAA0753
1		inactive	LOC343495
1		inactive	STT3B (STT3 oligosaccharyltransferase complex catalytic subunit B)
0		inactive	CDH20 (cadherin 20)
-2		inactive	AMZ2 (archaelysin family metallopeptidase 2)
0		inactive	IFNA21 (interferon alpha 21)
0		inactive	RO60 (Ro60, Y RNA binding protein)
-1		inactive	LOC338734
-2		inactive	LIM2 (lens intrinsic membrane protein 2)
-1		inactive	GRM1 (glutamate metabotropic receptor 1)
1		inactive	CPA2 (carboxypeptidase A2)
2		inactive	LOC442031
-1		inactive	CNTRL (centriolin)
-1		inactive	USP51 (ubiquitin specific peptidase 51)
0		inactive	LOC440960
-2		inactive	PIP5K1B (phosphatidylinositol-4-phosphate 5-kinase type 1 beta)
0		inactive	OR2AG2 (olfactory receptor family 2 subfamily AG member 2)
1		inactive	CD248 (CD248 molecule)
-1		inactive	RBMS2 (RNA binding motif single stranded interacting protein 2)
0		inactive	SLC9A7
0		inactive	LOC389958
1		inactive	EMP3 (epithelial membrane protein 3 (MAM blood group))
0		inactive	EXOC7 (exocyst complex component 7)

11 entries from above, reformatted:
PPIAP58 (peptidylprolyl isomerase A pseudogene 58)
- summed siRNA score for cisplatin death: 0
- Outcome: inactive

LOC440967
- summed siRNA score for cisplatin death: 1
- Outcome: inactive

COX6B1 (cytochrome c oxidase subunit 6B1)
- summed siRNA score for cisplatin death: 0
- Outcome: inactive

GTF2I (general transcription factor IIi)
- summed siRNA score for cisplatin death: 1
- Outcome: inactive

IGIP (IgA inducing protein)
- summed siRNA score for cisplatin death: 1
- Outcome: inactive

CYC1 (cytochrome c1)
- summed siRNA score for cisplatin death: -1
- Outcome: inactive

PSG7 (pregnancy specific beta-1-glycoprotein 7)
- summed siRNA score for cisplatin death: 2
- Outcome: inactive

MTAP (methylthioadenosine phosphorylase)
- summed siRNA score for cisplatin death: 0
- Outcome: inactive

MYL2 (myosin light chain 2)
- summed siRNA score for cisplatin death: 1
- Outcome: inactive

LOC344328
- summed siRNA score for cisplatin death: 1
- Outcome: inactive

KTN1 (kinectin 1)
- summed siRNA score for cisplatin death: -1
- Outcome: inactive
